# Measured values published in the supplement of paper PMC8728848.
# This is one part of the list.
# Experiments:
# Assay in all cases: glycan array binding signal (z-score within array); higher = stronger binding
# Conditions in all cases: glycan notation: IUPAC condensed, linker removed
# [1] = target: GalNAc(b1-4)GlcNAc(b1-2)Man
# In short: (§1)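 The binding signal is a Z-score computed within each array. Data were drawn from 3228 arrays in the Consortium for Functional Glycomics database, restricted to those with a known protein sequence. Scores were averaged over arrays of the same protein sequence at different concentrations or buffers, and over linkers, and negative values can be taken as non-binding.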
# [2] = target: GalNAc(b1-4)GlcNAc(b1-2)Man(a1-3)[GalNAc(b1-4)GlcNAc(b1-2)Man(a1-6)]Man(b1-4)GlcNAc(b1-4)GlcNAc
# In short: as §1
# [3] = target: GalNAc(b1-4)GlcNAc(b1-3)GalNAc(b1-4)GlcNAc
# In short: as §1
# GalNAc(b1-4)GlcNAc6S = target: GalNAc(b1-4)GlcNAc6S
# In short: as §1
# GalNAc(b1-6)GalNAc = target: GalNAc(b1-6)GalNAc
# In short: as §1
# GalNAc3S(b1-4)GlcNAc = target: GalNAc3S(b1-4)GlcNAc
# In short: as §1
# GalNAc3S(b1-4)GlcNAc3S = target: GalNAc3S(b1-4)GlcNAc3S
# In short: as §1
# [4] = target: GalNAc3S(b1-4)[Fuc(a1-3)]GlcNAc
# In short: as §1
# GalNAc4S6S(b1-4)GlcNAc = target: GalNAc4S6S(b1-4)GlcNAc
# In short: as §1
# GalNAc6S(b1-4)GlcNAc = target: GalNAc6S(b1-4)GlcNAc
# In short: as §1
# Glc(a1-4)Glc = target: Glc(a1-4)Glc
# In short: as §1
# [5] = target: Glc(a1-4)Glc(a1-4)Glc(a1-4)Glc
# In short: as §1
# Glc(a1-6)Glc(a1-6)Glc = target: Glc(a1-6)Glc(a1-6)Glc
# In short: as §1
# [6] = target: Glc(a1-6)Glc(a1-6)Glc(a1-6)Glc
# In short: as §1
# Glc(b1-4)Glc = target: Glc(b1-4)Glc
# In short: as §1
# Glc(b1-6)Glc = target: Glc(b1-6)Glc
# In short: as §1
# GlcA(b1-3)Gal = target: GlcA(b1-3)Gal
# In short: as §1
# GlcA(b1-3)GlcNAc = target: GlcA(b1-3)GlcNAc
# In short: as §1
# GlcA(b1-6)Gal = target: GlcA(b1-6)Gal
# In short: as §1
# [7] = target: GlcA3S(b1-3)Gal(b1-4)GlcNAc(b1-2)Man
# In short: as §1
# [8] = target: GlcA3S(b1-3)Gal(b1-4)GlcNAc(b1-3)Gal(b1-4)Glc
# In short: as §1
# [9] = target: GlcNAc(a1-3)Gal(b1-4)GlcNAc
# In short: as §1
# [10] = target: GlcNAc(a1-4)Gal(b1-3)GlcNAc
# In short: as §1
# [11] = target: GlcNAc(a1-4)Gal(b1-4)GalNAc
# In short: as §1
# [12] = target: GlcNAc(a1-4)Gal(b1-4)GlcNAc
# In short: as §1
# [13] = target: GlcNAc(a1-4)Gal(b1-4)GlcNAc(b1-3)Gal(b1-4)Glc
# In short: as §1
# [14] = target: GlcNAc(a1-4)Gal(b1-4)GlcNAc(b1-3)Gal(b1-4)GlcNAc
# In short: as §1
# [15] = target: GlcNAc(a1-4)Gal(b1-4)GlcNAc(b1-3)Gal(b1-4)GlcNAc(b1-3)Gal(b1-4)GlcNAc
# In short: as §1
# [16] = target: GlcNAc(a1-4)Gal(b1-4)GlcNAc(b1-3)Gal(b1-4)[Fuc(a1-3)]GlcNAc(b1-3)Gal(b1-4)[Fuc(a1-3)]GlcNAc
# In short: as §1
# [17] = target: GlcNAc(a1-6)Gal(b1-4)GlcNAc
# In short: as §1
# [18] = target: GlcNAc(b1-2)Gal(b1-3)GalNAc
# In short: as §1
# [19] = target: GlcNAc(b1-2)Man(a1-3)[GlcNAc(b1-2)Man(a1-6)]Man(b1-4)GlcNAc(b1-4)GlcNAc
# In short: as §1
# [20] = target: GlcNAc(b1-2)Man(a1-3)[GlcNAc(b1-2)Man(a1-6)]Man(b1-4)GlcNAc(b1-4)[Fuc(a1-6)]GlcNAc
# In short: as §1
# [21] = target: GlcNAc(b1-2)Man(a1-3)[GlcNAc(b1-4)][GlcNAc(b1-2)Man(a1-6)]Man(b1-4)GlcNAc(b1-4)GlcNAc
# In short: as §1
# [22] = target: GlcNAc(b1-2)Man(a1-3)[GlcNAc(b1-4)][GlcNAc(b1-2)Man(a1-6)]Man(b1-4)GlcNAc(b1-4)[Fuc(a1-6)]GlcNAc
# In short: as §1
# [23] = target: GlcNAc(b1-2)[GlcNAc(b1-4)]Man(a1-3)[GlcNAc(b1-2)Man(a1-6)]Man(b1-4)GlcNAc(b1-4)GlcNAc
# In short: as §1
# [24] = target: GlcNAc(b1-2)[GlcNAc(b1-4)]Man(a1-3)[GlcNAc(b1-4)][GlcNAc(b1-2)Man(a1-6)]Man(b1-4)GlcNAc(b1-4)GlcNAc
# In short: as §1
binder,measurement,setting,value
"HopZSSI-T (Helicobacter pylori), B5Z6D0 (protein) MGSSHHHHHHSSGLVPRGSHMENLYFQGEDNGFFISAGYQIGEAAQMVKNTGELKKLSDTYENLSNLLTNFNNLNQAVTNASSPSEINAAIDNLKANTQGLTGEKTNSPAYQAVYLALNAAVGLWNVIAYNVQCGPGNSSQQSVTFEGQPGHNSSSINCNLTGYNNGVSGPLSIDNFKQLNQAYQVLQQALKQGVPVLNNTNQKIEVKVTTQTNGQSSKETTTTTTTNDAQTLLQEASKMIDVLTTNCPWVNHNPGQNGGAPWGLIRQECVSGFATEFSAVTSMIKNAQEIVTQAQSLNANQNNQNAPQDFNPYTSADRAFAQNMLNHAQAQAKILELADQMKKDLNTIPSQFITNYLAACRIDGTTPSQGVTNNTWGAGCAYVEETITALNNSLAHFGTQAEQIKQSELLARTILDFRGSLSTLNSTYNSITTTASNTPNSPFLKNLISQSTNPNNPGGLQAVYQVNQSAYSQLLSATQELGHNPFRRIGLISSQT",glycan array binding signal (z-score),[1],-0.192
same,glycan array binding signal (z-score),[2],0.375
same,glycan array binding signal (z-score),[3],0.498
same,glycan array binding signal (z-score),GalNAc(b1-4)GlcNAc6S,-0.865
same,glycan array binding signal (z-score),GalNAc(b1-6)GalNAc,-0.469
same,glycan array binding signal (z-score),GalNAc3S(b1-4)GlcNAc,0.208
same,glycan array binding signal (z-score),GalNAc3S(b1-4)GlcNAc3S,-0.418
same,glycan array binding signal (z-score),[4],-0.683
same,glycan array binding signal (z-score),GalNAc4S6S(b1-4)GlcNAc,3.87
same,glycan array binding signal (z-score),GalNAc6S(b1-4)GlcNAc,9.12
same,glycan array binding signal (z-score),Glc(a1-4)Glc,0.409
same,glycan array binding signal (z-score),[5],-0.263
same,glycan array binding signal (z-score),Glc(a1-6)Glc(a1-6)Glc,-0.245
same,glycan array binding signal (z-score),[6],-0.288
same,glycan array binding signal (z-score),Glc(b1-4)Glc,-0.748
same,glycan array binding signal (z-score),Glc(b1-6)Glc,0.202
same,glycan array binding signal (z-score),GlcA(b1-3)Gal,-0.416
same,glycan array binding signal (z-score),GlcA(b1-3)GlcNAc,-0.669
same,glycan array binding signal (z-score),GlcA(b1-6)Gal,-0.427
same,glycan array binding signal (z-score),[7],-0.303
same,glycan array binding signal (z-score),[8],-0.717
same,glycan array binding signal (z-score),[9],-0.156
same,glycan array binding signal (z-score),[10],-0.245
same,glycan array binding signal (z-score),[11],-0.575
same,glycan array binding signal (z-score),[12],0.109
same,glycan array binding signal (z-score),[13],-0.199
same,glycan array binding signal (z-score),[14],-0.849
same,glycan array binding signal (z-score),[15],-0.165
same,glycan array binding signal (z-score),[16],0.594
same,glycan array binding signal (z-score),[17],-0.463
same,glycan array binding signal (z-score),[18],-0.807
same,glycan array binding signal (z-score),[19],-0.072
same,glycan array binding signal (z-score),[20],0.081
same,glycan array binding signal (z-score),[21],-0.234
same,glycan array binding signal (z-score),[22],-0.969
same,glycan array binding signal (z-score),[23],-0.762
same,glycan array binding signal (z-score),[24],-0.116

# A different layout for part of the listing above:
binder	measurement	setting	value
HopZSSI-T (Helicobacter pylori), B5Z6D0 (protein) MGSSHHHHHHSSGLVPRGSHMENLYFQGEDNGFFISAGYQIGEAAQMVKNTGELKKLSDTYENLSNLLTNFNNLNQAVTNASSPSEINAAIDNLKANTQGLTGEKTNSPAYQAVYLALNAAVGLWNVIAYNVQCGPGNSSQQSVTFEGQPGHNSSSINCNLTGYNNGVSGPLSIDNFKQLNQAYQVLQQALKQGVPVLNNTNQKIEVKVTTQTNGQSSKETTTTTTTNDAQTLLQEASKMIDVLTTNCPWVNHNPGQNGGAPWGLIRQECVSGFATEFSAVTSMIKNAQEIVTQAQSLNANQNNQNAPQDFNPYTSADRAFAQNMLNHAQAQAKILELADQMKKDLNTIPSQFITNYLAACRIDGTTPSQGVTNNTWGAGCAYVEETITALNNSLAHFGTQAEQIKQSELLARTILDFRGSLSTLNSTYNSITTTASNTPNSPFLKNLISQSTNPNNPGGLQAVYQVNQSAYSQLLSATQELGHNPFRRIGLISSQT	glycan array binding signal (z-score)	[11]	-0.575
same	glycan array binding signal (z-score)	[12]	0.109
